Publication PMC7819943, “Rice protein-binding microarrays: a tool to detect cis-acting elements near promoter regions in rice”
The other results are listed elsewhere or left out.

Sequences of proteins named here, by UniProt entry; tags and fusion partners are left off.
UniProt Q0JBA9, entry or part of it: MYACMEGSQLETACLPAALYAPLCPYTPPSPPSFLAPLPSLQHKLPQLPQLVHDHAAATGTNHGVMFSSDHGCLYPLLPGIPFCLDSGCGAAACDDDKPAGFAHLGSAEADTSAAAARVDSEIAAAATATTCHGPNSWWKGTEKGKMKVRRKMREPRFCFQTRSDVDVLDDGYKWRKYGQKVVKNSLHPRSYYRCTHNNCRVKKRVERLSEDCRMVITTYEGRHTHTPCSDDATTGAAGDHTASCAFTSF

What follows are sequences tested against OsWRKY34 (Oryza sativa, UniProt Q0JBA9 1-250) (assay: protein-binding microarray (RPBM); PBS, 2% BSA, 51.3 ng/ul salmon testes DNA, 50 uM zinc acetate, 200 nM TF, 25 C, 1 h; high values mean tight binding). Details: protein: recombinant; tags: N-terminal polyhistidine and DsRed monomer fusion (pET32a); label: CyDye5-dUTP incorporated in the synthesized complementary strand; 3' TTTTT single-stranded linker to array surface; dsDNA, one strand shown.
How it was run: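 Transcription factors, each fused N-terminally to a polyhistidine tag and DsRed, were expressed in E. coli BL21-CodonPlus and purified on Ni–NTA. A custom Agilent array was made double-stranded by primer extension with Cy5-dUTP and blocked with 2% BSA. It was incubated with 200 nM protein in PBS, 2% BSA, salmon testes DNA and 50 µM zinc acetate at 25 °C for 1 h, then washed. The binding signal is per-feature fluorescence intensity (arbitrary units) read on an Axon 4000B scanner.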

Sequence | binding signal
CCCTCTCCTCTCCCTGTTTCTCCTCATCCCTGCTTCCTCTCGGAGTCACCTAGTGCAG | 9110 fluorescence intensity (a.u.)
GCCTTTTTAACTTGTGCGACCGGTGTTCCGGGATTTTGGGCGGAGTCACCTAGTGCAG | 10900 fluorescence intensity (a.u.)
GCCGTTTTTCTACTCCTTTCGTAGTTATATTTTAGGACAACGGAGTCACCTAGTGCAG | 9940 fluorescence intensity (a.u.)
TGACATGTTCACCTTCATCGGGCTCCTCGAGTTCTTCTACCGGAGTCACCTAGTGCAG | 8730 fluorescence intensity (a.u.)
CTTGATGTTATTGTTTTTCATTTTATCTACTTTAAATATACGGAGTCACCTAGTGCAG | 8260 fluorescence intensity (a.u.)
TCACAGGCCATCTCTCTATCCCTAATTAAGCTATATACTCCGGAGTCACCTAGTGCAG | 8820 fluorescence intensity (a.u.)
CGAACCACCCTGCGCTCTTGTCCTCGTTTGATAGTGTCGTCGGAGTCACCTAGTGCAG | 10200 fluorescence intensity (a.u.)
AACCGTTTAGGATAGCTCATCTTTTTCTTGGGCCTGATTACGGAGTCACCTAGTGCAG | 10500 fluorescence intensity (a.u.)
CTTACTAACCTCCTGCTTGTCTTGTCCACTCCAGTCCACACGGAGTCACCTAGTGCAG | 8290 fluorescence intensity (a.u.)
GCCTCGATCTCCTCCCCACCGCGCATCGCTCCTCTCCCCTCGGAGTCACCTAGTGCAG | 13500 fluorescence intensity (a.u.)
TGTTTAATTTCATTACTTATTTTTTTTCATTGCATTATAACGGAGTCACCTAGTGCAG | 8990 fluorescence intensity (a.u.)
GCCCAGCTTGCGCACGGGGAGGGGAGGGGAGAATGGGCCGCGGAGTCACCTAGTGCAG | 11000 fluorescence intensity (a.u.)
ACCTTGGAAGCAAGCAACTCCATCGATCGCCTATAAATTCCGGAGTCACCTAGTGCAG | 8840 fluorescence intensity (a.u.)
TTGTGCCACTTCATTCATTGCTACCCCTAATTCTAGGCACCGGAGTCACCTAGTGCAG | 8430 fluorescence intensity (a.u.)
CCTGCACGCTCCTCCATATTCCGCTGCCGTCGACGATACTCGGAGTCACCTAGTGCAG | 12100 fluorescence intensity (a.u.)
TCCTGCGATCCTGACCTGTAAAAACGCTGTTGTACCAGCTCGGAGTCACCTAGTGCAG | 8850 fluorescence intensity (a.u.)
CACGTTGTTGCTTGTTGCCATTATCACGCGTAGTTTATTCCGGAGTCACCTAGTGCAG | 8500 fluorescence intensity (a.u.)
TTCCTATCATGTGTTTCAAAACAATCATGATTTCATTAGCCGGAGTCACCTAGTGCAG | 8060 fluorescence intensity (a.u.)
ATCTCCCACCCCACAACCTCGCCATCTCCGCCTCTCCTCGCGGAGTCACCTAGTGCAG | 9600 fluorescence intensity (a.u.)
TAAGCTAGCGACTCGTTCCTCTTCTCATTTTCTTTTTTTACGGAGTCACCTAGTGCAG | 9470 fluorescence intensity (a.u.)
CCGATATTTAGGTTCGGTCCTTTGATTTTCGTTTTGTTTTCGGAGTCACCTAGTGCAG | 10300 fluorescence intensity (a.u.)

Sequence | binding signal
ACTTGATGCATTTACTGGTAGCTTGGTTTGCTGATATTTTCGGAGTCACCTAGTGCAG | 12500 fluorescence intensity (a.u.)
CACCGCCCTGGACCGCCGCCGCCTCCTCGCCGCCATCGAACGGAGTCACCTAGTGCAG | 9000 fluorescence intensity (a.u.)
TTGAACTTTTATATATTTGTTCGTACTGACTTAAAAGTTACGGAGTCACCTAGTGCAG | 8170 fluorescence intensity (a.u.)
TCCCACTCCTCGATCCAATCCTCGCCGTCCATCCTTCCCTCGGAGTCACCTAGTGCAG | 8130 fluorescence intensity (a.u.)
GCGGCGAAGCAGGGAGGAGGGAGGAGGAGGGGCGGCGGTGCGGAGTCACCTAGTGCAG | 12100 fluorescence intensity (a.u.)
ACGAATGGTCAAACATGTGAGGAAAAGTCAACGGCGTCATCGGAGTCACCTAGTGCAG | 13400 fluorescence intensity (a.u.)
CTACAAATTTTATTTTTTTTCTTTTTGCAAGGATTTCTTTCGGAGTCACCTAGTGCAG | 8900 fluorescence intensity (a.u.)
ACTCCATTTATTCGCTGAGCAAATTTCCAGCCTTTTTTGCCGGAGTCACCTAGTGCAG | 8110 fluorescence intensity (a.u.)
GATACTACACGTCTCTGCACACGCGTCAGCAAGCTCCTGTCGGAGTCACCTAGTGCAG | 8350 fluorescence intensity (a.u.)
CACCAATCCACCCTTAATTATCGTTTGCATGAGATAGTTTCGGAGTCACCTAGTGCAG | 8640 fluorescence intensity (a.u.)
TCAGCTATTACACGACAATACACGCTTCGGAGAATTTCCGCGGAGTCACCTAGTGCAG | 9700 fluorescence intensity (a.u.)
CCAAATTTTATTATTTTTGGTCACGTCGCGGCATGCATCTCGGAGTCACCTAGTGCAG | 9330 fluorescence intensity (a.u.)
ACACCATTTTACATCATTGATTCAGGTCCTGTTTAGTTCGCGGAGTCACCTAGTGCAG | 9420 fluorescence intensity (a.u.)
CCACCTTCGTTCTCCGCTTCGGCATTTCGTCGAACACCTCCGGAGTCACCTAGTGCAG | 9760 fluorescence intensity (a.u.)
CGGAGTTGCCACCTGCTGCTGCCATGATGCCTCTGTCGCCCGGAGTCACCTAGTGCAG | 10200 fluorescence intensity (a.u.)
ACTCACACACCCCAAGCCCTAGTCCGGCCGTCGACGCTGTCGGAGTCACCTAGTGCAG | 8690 fluorescence intensity (a.u.)
ATCACTATTTTTACACCTTAAACTTTGTTTGGTATTCCCACGGAGTCACCTAGTGCAG | 9990 fluorescence intensity (a.u.)
TATGTTTCAATTTTTCCTATATTATTAGAGTTTACCTTGTCGGAGTCACCTAGTGCAG | 9170 fluorescence intensity (a.u.)
TATTTTGGTGCACTTTTTTCCTTGAAAGTTGGCTGTCAATCGGAGTCACCTAGTGCAG | 10500 fluorescence intensity (a.u.)
ATTCTCATCATTGTTGGATTTCCTTAATTCTATTTTTCATCGGAGTCACCTAGTGCAG | 10800 fluorescence intensity (a.u.)
TTTATTTGCTTATCGTTTTCTAACATTCTGAACACAAACCCGGAGTCACCTAGTGCAG | 8230 fluorescence intensity (a.u.)

Single entries from the list:
Entry for CCACCTTCGTTCTCCGCTTCGGCATTTCGTCGAACACCTCCGGAGTCACCTAGTGCAG under binding signal: 9760 fluorescence intensity (a.u.)
Entry for GCGGCGAAGCAGGGAGGAGGGAGGAGGAGGGGCGGCGGTGCGGAGTCACCTAGTGCAG under binding signal: 12100 fluorescence intensity (a.u.)
